Library screening results

Chains of the proteins cited; added tags and fusions are not shown.
UniProt E9BF75, entry or part of it: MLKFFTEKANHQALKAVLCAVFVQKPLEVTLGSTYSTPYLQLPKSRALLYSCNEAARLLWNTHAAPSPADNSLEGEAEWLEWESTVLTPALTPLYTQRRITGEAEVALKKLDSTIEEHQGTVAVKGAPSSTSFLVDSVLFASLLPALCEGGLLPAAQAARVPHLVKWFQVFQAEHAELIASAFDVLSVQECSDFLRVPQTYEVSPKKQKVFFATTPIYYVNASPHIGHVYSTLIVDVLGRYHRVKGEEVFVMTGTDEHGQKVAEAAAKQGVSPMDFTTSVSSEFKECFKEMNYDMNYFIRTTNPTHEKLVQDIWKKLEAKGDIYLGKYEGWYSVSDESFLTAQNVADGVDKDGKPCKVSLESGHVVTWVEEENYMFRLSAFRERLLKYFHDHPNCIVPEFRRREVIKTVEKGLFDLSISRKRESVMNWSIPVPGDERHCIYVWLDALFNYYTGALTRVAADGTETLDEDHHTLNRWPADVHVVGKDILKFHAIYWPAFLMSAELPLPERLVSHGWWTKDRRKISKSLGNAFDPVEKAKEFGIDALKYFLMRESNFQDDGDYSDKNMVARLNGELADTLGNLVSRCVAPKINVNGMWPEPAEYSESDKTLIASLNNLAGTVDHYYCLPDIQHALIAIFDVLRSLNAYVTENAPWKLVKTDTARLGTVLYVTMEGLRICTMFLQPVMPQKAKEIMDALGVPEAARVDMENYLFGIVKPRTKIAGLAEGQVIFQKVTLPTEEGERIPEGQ

Source: ChEMBL document CHEMBL3988442, “University of Dundee, Small-Polar-MMV Screening Library” (2021).

All values are in %. The record does not define 0% and 100%; most values in the screen are far below 50% and negative numbers occur (in some assays of this library far below -100). This is an unselected part of the compounds tested.

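Primary screen of methionyl-tRNA synthetase; the read-out is not stated. Target: Methionyl-tRNA synthetase (putative), Leishmania donovani (UniProt E9BF75). The test concentration is not given. The values are filed as inhibition. Size under these conditions: about 68,000 compounds, about 24 of them at 50% or above in at least one test.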

| # | SMILES | Inhibition |
|---|---|---|
| 1 | `Cc1nc(CN2Cc3cn(C)nc3C(COCC3CC3)C2)cs1` (configuration not stated) | 6.667% |
| 2 | `O=C(Cc1cccnc1)N1CCC(OCc2ccccc2)CC1` | 16.3% |
| 3 | `CCOCC1CN(S(C)(=O)=O)Cc2cnn(CC3CCOCC3)c21` (configuration not stated) | 19.31% |
| 4 | `Cc1ccc(-c2noc(CN3CCc4cncnc4C3)n2)cc1` | 9.474% |
| 5 | `CN(Cc1ccsc1)C(=O)C1CCC(=O)N(Cc2ccccn2)C1` (configuration not stated) | 5.842% |
| 6 | `Cc1ccccc1S(=O)(=O)N1CCC(c2[nH]ncc2C)C1` (configuration not stated) | 12.3% |
| 7 | `COC(=O)CCNC(=O)c1coc(COc2ccc(F)cc2)n1` | 10.86% |
| 8 | `CNc1cc(C)nc(N2CCC3(CC2)[C@H](O)C[C@@H]3OCCN(C)C)n1` | 9.774% |
| 9 | `Cc1ccc(N2C[C@H]3CCC[C@@H](CN4CCOCC4)[C@H]3C2)nn1` | 17.77% |
| 10 | `CC(C)NC(=O)N1CC[C@@H]2CN(Cc3cccc(Cl)c3)S(=O)(=O)[C@@H]2CC1` | 2.929% |
| 11 | `CCC(C)S(=O)(=O)N1CCc2nc(C3CCNCC3)ncc2C1` (configuration not stated) | 4.52% |
| 12 | `Cc1nc(CN2CCN(c3ncnc4ccccc34)CC2)no1` | 11.8% |
| 13 | `Cc1ncc2c(n1)CCCC2NC(=O)c1ccncc1` (configuration not stated) | 4.724% |
| 14 | `Cc1csc(N2CCCN(C(=O)c3c(C)noc3C)CC2)n1` | 7.225% |
| 15 | `CC1CCN(S(=O)(=O)N2CCn3cccc3C2C)CC1` (configuration not stated) | 9.03% |
| 16 | `CCc1nnc(CN2CCC3(CCC(=O)N(C4CCCC4)C3)CC2)o1` | 19.06% |
| 17 | `O=C(O)c1cc(-c2cccs2)nc2c(Cl)cnn12` | 13.24% |
| 18 | `COCc1cccc(CNCc2c(C(C)C)nn(C)c2N(C)C)c1` | 16.32% |
| 19 | `Fc1cccc(-c2c[nH]c(C3CCCN3)n2)c1` (configuration not stated) | 7.519% |
| 20 | `O=C(c1ccc2cccc(F)c2n1)N1CCN(CCn2cccc2)CC1` | 6.832% |
| 21 | `CC(=O)N1CCCC(C(=O)NCCc2nc(Cc3ccccc3)no2)C1` (configuration not stated) | 15.46% |
| 22 | `CC(C)CN1CCC2(C=C(C(=O)N3CCCC3)c3ccccc32)CC1` | 16.32% |
| 23 | `CS(=O)(=O)c1ccccc1C(=O)NCCCN1CCc2ccccc2C1` | 9.79% |
| 24 | `Cn1cc(-c2ncc3c(c2C(=O)O)CCN(CC2CCOC2)C3)cn1` (configuration not stated) | 5.865% |
| 25 | `c1cnc(CC2CCN(c3cnccn3)CC2)cn1` | 9.449% |
| 26 | `Cc1occc1CNC(=O)N(CCCO)C1CCc2ccccc21` (configuration not stated) | 18.18% |
| 27 | `Cc1ncsc1-c1nnc(C2CCN(Cc3ccccc3)CC2)o1` | 11.53% |
| 28 | `CCc1cnc(N)nc1NCCc1ccc(OC)cc1OC` | 12.89% |
| 29 | `CC(=O)NCCC(=O)N(C/C=C/c1ccccc1)CCO` | 4.02% |
| 30 | `Cc1cc(NC(=O)C(C)Cn2cc(Br)cn2)no1` (configuration not stated) | -9.181% |
| 31 | `N#Cc1cccc(CN2CC3(CCCCN3c3cccnc3)CC2=O)c1` (configuration not stated) | 13.49% |
| 32 | `Cc1cccc(OCCC(=O)N2CCN(S(=O)(=O)N(C)C)CC2)c1C` | 2.347% |
| 33 | `CCOc1ccc(CN2CCc3nc4ccsc4c(=O)n3CC2)cc1` | 11.65% |
| 34 | `CS(=O)(=O)Cc1cccc(CNS(=O)(=O)c2ccc(F)c(F)c2)c1` | 11.98% |
| 35 | `NC(=O)CN(CC(=O)NCc1cc(F)cc(F)c1)C1CCCC1` | 17.83% |
| 36 | `CC(C)Oc1nnc(SCC(=O)NCC(=O)N2CCCC2)s1` | 9.375% |
| 37 | `O=C(NCc1ccc(F)cc1)NCC(O)(c1cccs1)C1CC1` (configuration not stated) | 3.597% |
| 38 | `Cc1cccc(CN(Cc2ccccn2)S(=O)(=O)N(C)C(C)C)c1` | 11.17% |
| 39 | `CCc1nc(C2CCCN(C(=O)c3cccnc3O)C2)no1` (configuration not stated) | 22.35% |
| 40 | `c1ccc2oc(CCCN3CCCC3Cn3cncn3)nc2c1` (configuration not stated) | 12.38% |
| 41 | `O=C(CN1CCCC1c1noc(C2CC2)n1)NCCc1ccsc1` (configuration not stated) | 17.88% |
| 42 | `O=C(c1ccc2[nH]cnc2c1)N1CCC(Oc2cccnc2)CC1` | 13.77% |
| 43 | `O=C(O)c1ccc(N2CCC(Oc3ccc(Cl)cc3)CC2)nc1` | 14.95% |
| 44 | `COCCN1C[C@@H]2CN(Cc3ccc(F)cc3)C[C@@H]2C1=O` | 8.403% |
| 45 | `CC(=O)N1CCCN(c2nccc(-c3cn(C)nc3C)n2)CC1` | 11.71% |
| 46 | `Cc1cnn(CC2CCCN2C(=O)c2cccnc2-n2cncn2)c1` (configuration not stated) | 11.97% |
| 47 | `CCSc1ncc(CN2C[C@H]3CC[C@@H]2CN(C2CCOCC2)C3)cn1` | 21.6% |
| 48 | `CCn1ccnc1CN(C)c1cc(C2CCCNC2)nc(C)n1` (configuration not stated) | 1.083% |
| 49 | `COc1ccc(-c2ccnc3nc(N4CCCCC4)[nH]c(=O)c23)cc1` | 6.857% |
| 50 | `O=C(Cn1cccn1)Nc1ccc(N2CCCCC2)cc1` | 2.326% |
| 51 | `COc1ccc(Br)c(NC(=O)NCc2cnn(C)c2)c1` | 11.45% |
| 52 | `C[C@@H]1CN(Cc2cccnc2)C[C@]1(C)O` | 10.73% |
| 53 | `Cc1cccc(CCC(=O)N2CCOCC2c2c(C)n[nH]c2C)c1` (configuration not stated) | -1.478% |
| 54 | `O=C(N1CCCC1)N1C[C@H]2CCC[C@@]2(COCc2ccccn2)C1` | 13.49% |
| 55 | `O=C(NC1CC1)c1cc(NC(=O)N2CCSCC2)ccc1Cl` | 6.628% |
| 56 | `CCC(CC(=O)Nc1ccc2c(c1)CC(=O)N2)c1ccccc1` (configuration not stated) | 14.64% |
| 57 | `CC(=O)N1CCC(N[C@@H]2CO[C@H](CNC(=O)C3CCCC3)[C@H]2O)CC1` | 11.19% |
| 58 | `CCc1ncc2c(n1)CN(CC1CCCCO1)CC2` (configuration not stated) | 4.897% |
| 59 | `CC(C)c1nccn1-c1cccc(C2CCCN(C3CCCC3)C2)n1` (configuration not stated) | 22.73% |
| 60 | `CCNC(=O)N1CCC(=Cc2ccccc2)CC1` | 8.871% |
| 61 | `O=c1nc(SCc2ccc(Cl)cc2)c2c(n1CCO)CCC2` | 3.147% |
| 62 | `Cc1cc(NCc2ccccc2CN2CCCCC2)n2ncnc2n1` | 14.12% |
| 63 | `COCCN1CCC2(CCN(Cc3cccs3)CC2)C1=O` | 8.143% |
| 64 | `CCC(C(=O)NCc1cccnc1)N(c1cccc(C)c1)S(C)(=O)=O` (configuration not stated) | 8.38% |
| 65 | `Cc1cc(C(N)=O)nc(C2(C)CCCN2Cc2cnn(C)c2C)n1` (configuration not stated) | 5.788% |
| 66 | `Cc1nc2oc(C(=O)N3CCCC3)c(N)c2c2c1CCCC2` | 13.82% |
| 67 | `CCN1C[C@H]2[C@@H](C1)N(S(=O)(=O)c1ccccc1)CC[C@H]2OC` | 18.41% |
| 68 | `OC1(CN2CCCC2)COCCN(c2nccs2)C1` (configuration not stated) | 8.383% |
| 69 | `Cc1ncsc1CCN(C)C(=O)CN1CCCCC1=O` | 2.821% |
| 70 | `COC(=O)C(C)(C)NC(=O)c1cnc(Cc2ccc(F)cc2)s1` | 10.61% |
| 71 | `N#Cc1cccc(CN(CCO)Cc2ccsc2)c1` | 14.58% |
| 72 | `O=C1NCCCN1Cc1nc(-c2ccc(N3CCCCC3)cc2)no1` | 16.11% |
| 73 | `O=C(NCC(F)(F)F)C1CSCN1S(=O)(=O)c1cccc(F)c1` (configuration not stated) | 7.988% |
| 74 | `N#Cc1ccc(N2CCCC3(CCC(=O)N3CC3CC3)CC2)nc1` (configuration not stated) | 7.625% |
| 75 | `CC(C)NS(=O)(=O)c1cc(C(=O)O)cc(-c2ccc3c(c2)OCO3)c1` | 8.38% |
| 76 | `O=C1NC2(CCN(C(=O)c3ccccc3)CC2)CC1c1cccnc1` (configuration not stated) | 13.5% |
| 77 | `COc1ncccc1CNC(=O)c1cc(C)on1` | 17.48% |